Experimental data: doi:10.1101/2022.06.26.497666 (bioRxiv, 2022)
No constants are given. Whether binding was seen depends on the method and setting. Binding seen in cells or lysates may run through a third protein. Some binding calls cover weakened binding; strength is not graded here. One block for each molecule: values may come before it.

Chains of the proteins cited; added tags and fusions are not shown.
UniProt Q9ULZ3: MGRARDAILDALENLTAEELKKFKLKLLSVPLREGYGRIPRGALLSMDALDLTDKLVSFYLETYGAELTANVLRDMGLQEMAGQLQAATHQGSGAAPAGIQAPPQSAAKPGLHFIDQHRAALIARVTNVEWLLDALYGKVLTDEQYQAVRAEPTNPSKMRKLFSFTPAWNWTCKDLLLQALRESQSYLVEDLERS

Experiments:
Experiment in all cases: co-IP
[1] = target: T1, NLRP1 (wild-type full-length human NLRP1) (human) (UniProt Q9C000)
T1 sequence: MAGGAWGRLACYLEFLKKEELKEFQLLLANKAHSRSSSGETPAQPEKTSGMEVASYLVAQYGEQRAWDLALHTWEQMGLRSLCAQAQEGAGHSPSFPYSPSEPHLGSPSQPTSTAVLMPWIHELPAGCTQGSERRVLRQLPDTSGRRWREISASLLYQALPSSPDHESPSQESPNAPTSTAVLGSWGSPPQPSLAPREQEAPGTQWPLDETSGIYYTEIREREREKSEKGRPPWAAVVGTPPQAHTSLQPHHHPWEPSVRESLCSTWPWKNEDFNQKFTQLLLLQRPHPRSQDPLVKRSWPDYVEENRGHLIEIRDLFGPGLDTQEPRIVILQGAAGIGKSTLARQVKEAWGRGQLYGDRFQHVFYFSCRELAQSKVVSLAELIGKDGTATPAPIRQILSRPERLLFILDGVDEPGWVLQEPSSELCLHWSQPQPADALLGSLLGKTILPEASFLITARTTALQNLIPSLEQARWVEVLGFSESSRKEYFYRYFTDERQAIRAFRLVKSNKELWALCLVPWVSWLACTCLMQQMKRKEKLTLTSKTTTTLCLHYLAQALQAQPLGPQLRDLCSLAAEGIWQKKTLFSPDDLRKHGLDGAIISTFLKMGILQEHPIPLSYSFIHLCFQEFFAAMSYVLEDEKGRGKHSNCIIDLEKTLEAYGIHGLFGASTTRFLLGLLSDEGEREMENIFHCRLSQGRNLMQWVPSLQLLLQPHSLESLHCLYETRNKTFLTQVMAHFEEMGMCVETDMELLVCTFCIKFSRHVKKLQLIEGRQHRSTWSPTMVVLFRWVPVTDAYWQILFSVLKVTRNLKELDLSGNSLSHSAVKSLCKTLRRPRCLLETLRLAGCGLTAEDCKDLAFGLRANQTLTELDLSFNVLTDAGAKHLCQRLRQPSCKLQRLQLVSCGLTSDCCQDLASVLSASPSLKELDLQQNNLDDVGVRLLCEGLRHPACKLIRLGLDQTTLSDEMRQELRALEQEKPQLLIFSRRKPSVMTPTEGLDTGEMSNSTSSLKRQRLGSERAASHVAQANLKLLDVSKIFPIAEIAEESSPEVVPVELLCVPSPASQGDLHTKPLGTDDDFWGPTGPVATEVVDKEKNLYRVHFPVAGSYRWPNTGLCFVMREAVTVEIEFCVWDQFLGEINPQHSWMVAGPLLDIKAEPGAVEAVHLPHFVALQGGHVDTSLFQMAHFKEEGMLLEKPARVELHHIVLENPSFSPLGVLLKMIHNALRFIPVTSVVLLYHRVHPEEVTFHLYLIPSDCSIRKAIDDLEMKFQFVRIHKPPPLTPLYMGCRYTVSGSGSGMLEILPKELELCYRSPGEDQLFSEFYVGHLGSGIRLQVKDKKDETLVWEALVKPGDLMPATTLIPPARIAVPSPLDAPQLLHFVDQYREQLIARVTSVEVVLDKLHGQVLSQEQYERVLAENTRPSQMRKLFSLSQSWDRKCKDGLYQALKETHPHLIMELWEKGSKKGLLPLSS

[2] = target: CARD8-T60 isoform (full-length) (human) (UniProt Q9Y2G2)
[3] = target: T2, NLRP1 FIIND domain (truncation mutant of NLRP1) (human) (UniProt Q9C000)
T2 sequence: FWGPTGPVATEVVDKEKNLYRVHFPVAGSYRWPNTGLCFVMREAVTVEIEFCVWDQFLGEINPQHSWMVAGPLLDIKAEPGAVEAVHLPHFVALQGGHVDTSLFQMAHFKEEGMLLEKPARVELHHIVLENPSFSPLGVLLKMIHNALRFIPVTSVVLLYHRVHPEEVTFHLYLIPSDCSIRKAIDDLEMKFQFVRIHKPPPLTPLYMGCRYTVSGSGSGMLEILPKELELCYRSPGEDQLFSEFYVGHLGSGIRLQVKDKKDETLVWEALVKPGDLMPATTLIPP

[4] = target: T3, NLRP1 NACHT domain (truncation mutant of NLRP1) (human) (UniProt Q9C000)
T3 sequence: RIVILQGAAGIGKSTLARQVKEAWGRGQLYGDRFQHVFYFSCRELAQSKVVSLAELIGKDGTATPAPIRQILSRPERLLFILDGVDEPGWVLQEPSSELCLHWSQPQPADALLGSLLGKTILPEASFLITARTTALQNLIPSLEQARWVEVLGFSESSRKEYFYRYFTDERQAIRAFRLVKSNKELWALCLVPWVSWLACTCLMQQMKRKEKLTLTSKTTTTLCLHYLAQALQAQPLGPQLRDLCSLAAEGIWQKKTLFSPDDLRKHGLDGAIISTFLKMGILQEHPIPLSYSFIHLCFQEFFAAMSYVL

[5] = target: T4, NLRP1 (wild-type full-length human NLRP1) (human), Q9C000; conditions: remark: other sources report otherwise
T4 chain: T1 sequence

binding [1]: binds
Molecule: CARD8-T48-Q152QA (from UniProt Q9Y2G2-1)

binding [2]: no binding
Molecule: ASC (from UniProt Q9ULZ3 1-195)

binding [3]: binds
binding [4]: binds
B1: CARD8-T60 isoform (full-length) (natural protein)
chain: MEKKECPEKSSSSEEELPRRDSGSSRNIDASKLIRLQGSRKLLVDNSIRELQYTKTGIFFQAEACVTNDTVYRELPCVSETLCDISHFFQEDDETEAEPLLFRAVPECQLSGGDIPSVSEEQESSEGQDSGDICSEENQIVSSYASKVCFEIEEDYKNRQFLGPEGNVDVELIDKSTNRYSVWFPTAGWYLWSATGLGFLVRDEVTVTIAFGSWSQHLALDLQHHEQWLVGGPLFDVTAEPEEAVAEIHLPHFISLQAGEVDVSWFLVAHFKNEGMVLEHPARVEPFYAVLESPSFSLMGILLRIASGTRLSIPITSNTLIYYHPHPEDIKFHLYLVPSDALLTKAIDDEEDRFHGVRLQTSPPMEPLNFGSSYIVSNSANLKVMPKELKLSYRSPGEIQHFSKFYAGQMKEPIQLEITEKRHGTLVWDTEVKPVDLQLVAASAPPPFSGAAFVKENHRQLQARMGDLKGVLDDLQDNEVLTENEKELVEQEKTRQSKNEALLSMVEKKGDLALDVLFRSISERDPYLVSYLRQQNL

binding [5]: binds
B2: CARD8-T48 isoform (wild-type full-length), Q9Y2G2-1 (protein)
chain: MMRQRQSHYCSVLFLSVNYLGGTFPGDICSEENQIVSSYASKVCFEIEEDYKNRQFLGPEGNVDVELIDKSTNRYSVWFPTAGWYLWSATGLGFLVRDEVTVTIAFGSWSQHLALDLQHHEQWLVGGPLFDVTAEPEEAVAEIHLPHFISLQGEVDVSWFLVAHFKNEGMVLEHPARVEPFYAVLESPSFSLMGILLRIASGTRLSIPITSNTLIYYHPHPEDIKFHLYLVPSDALLTKAIDDEEDRFHGVRLQTSPPMEPLNFGSSYIVSNSANLKVMPKELKLSYRSPGEIQHFSKFYAGQMKEPIQLEITEKRHGTLVWDTEVKPVDLQLVAASAPPPFSGAAFVKENHRQLQARMGDLKGVLDDLQDNEVLTENEKELVEQEKTRQSKNEALLSMVEKKGDLALDVLFRSISERDPYLVSYLRQQNL
